The assay concerns BDF1 mice, B16 melanoma ip, median survival T/C. Nature of the assay: NCI In Vivo Anticancer Drug Screen. Data for tumor model B16 Melanoma (intraperitoneal) in B6D2F1 (BDF1) mice. The following applies: T/C endpoint: median survival time, higher T/C = longer survival. The method, then:
The antitumor activity of compounds was measured in mice bearing transplantable tumors. Survival or tumor size were measured and the results are expressed as the measurement made in the treated group (T) divided by the measurement made in the vehicle treated control group (C). The tumor model used in this assay is B16 Melanoma (intraperitoneal) in B6D2F1 (BDF1) mice

Setting [1] is: dose: 2.0 mg/kg/injection, schedule: Q01DX009 (ip), vehicle: water.

The structures appear in SMILES notation. The list does not hold the whole screen: it is rich in T/C values a quarter to a half above the control, in often repeated tests (any T/C) and in doses without a T/C. Further doses and runs are listed elsewhere. T/C gives the treated animals as a percentage of the vehicle group. Some doses have a count of surviving animals in place of a T/C: the source holds a T/C of zero for them, seemingly a mark for toxic or unscored doses. Some doses without a T/C left all or most animals alive at the check, yet need not have been tolerated: the source hardly ever lists a survival T/C far under the control, and the zero likely stands for such cases as well. Survivors were counted at the toxicity check, usually on the fifth day, unless a day is given; later deaths do not show. Schedules are NCI's codes, read here as Q, the interval in days (D) or hours (H), X, the number of doses. Some structures stand for samples that the source files as different forms (salt, stereo form or complex); doses refer to the form tested. Some entries hold several experiments; the results are listed from low to high. For survival time, this PubChem deposit counts one and a half times the control or more as active, and values a quarter to a half above the control carry no call in these data; other NCI protocols may use other cut-offs. Some T/C values carry the count of animals alive at the toxicity check (mostly the fifth day); where none is given, no animal had died by that day.

On to `O=c1[nH]cc(F)c(=O)[nH]1.[Tl]`, for which the survivor count is, setting by setting: (dose: 12.5 mg/kg/injection, schedule: Q01DX009 (ip), vehicle: water) 10 of 10; (dose: 25.0 mg/kg/injection, schedule: Q01DX009 (ip), vehicle: water) 6 of 10; (dose: 50.0 mg/kg/injection, schedule: Q01DX009 (ip), vehicle: water) 1 of 10; (dose: 100.0 mg/kg/injection, schedule: Q01DX009 (ip), vehicle: water) 0 of 10.

Take `CCCC(C)(COC(N)=O)COC(=O)NC(C)C` (stereo not drawn): the survivor count is listed as 8 of 10 (dose: 25.0 mg/kg/injection, schedule: Q01DX009 (ip), vehicle: Klucel (hydroxypropylcellulose) (HPC)); 7 of 10 (dose: 50.0 mg/kg/injection, schedule: Q01DX009 (ip), vehicle: Klucel (hydroxypropylcellulose) (HPC)); 10 of 10 (dose: 100.0 mg/kg/injection, schedule: Q01DX009 (ip), vehicle: Klucel (hydroxypropylcellulose) (HPC)); 10 of 10 (dose: 200.0 mg/kg/injection, schedule: Q01DX009 (ip), vehicle: Klucel (hydroxypropylcellulose) (HPC)); 10 of 10 (dose: 400.0 mg/kg/injection, schedule: Q01DX009 (ip), vehicle: Klucel (hydroxypropylcellulose) (HPC)).

`CCC[CH2][Sn]([CH2]CCC)([S]C#N)[S]C#N`: the survivor count is reported as 2 of 10 (dose: 6.0 mg/kg/injection, schedule: Q01DX009 (ip), vehicle: saline with Tween-80) and 0 of 10 (dose: 12.0 mg/kg/injection, schedule: Q01DX009 (ip), vehicle: saline with Tween-80).

For the molecule `CC[C@@]1(O)C[C@H](OC2CC(N(C)C)C(OC3CC(O)C(OC4CCC(=O)C(C)O4)C(C)O3)C(C)O2)c2c(cc3c(c2O)C(=O)c2c(O)ccc(O)c2C3=O)[C@H]1C(=O)OC` (stereo partly drawn), the T/C is 146 % of control (dose: 0.5 mg/kg/injection, schedule: Q01DX009 (ip), vehicle: saline); 129 % of control (dose: 0.5 mg/kg/injection, schedule: Q01DX009 (ip), vehicle: water); 138 % of control (dose: 0.75 mg/kg/injection, schedule: Q01DX009 (ip), vehicle: saline); 130 % of control (dose: 1.0 mg/kg/injection, schedule: Q01DX009 (ip), vehicle: water, evaluated on day 35); 129 % of control (dose: 1.0 mg/kg/injection, schedule: Q01DX009 (ip), vehicle: water, evaluated on day 60); 133 % of control under setting [1]. Moreover, the survivor count (dose: 2.0 mg/kg/injection, schedule: Q01DX009 (ip), vehicle: saline) is listed as 9 of 10; the survivor count under setting [1] is listed as 10 of 10; the survivor count (dose: 3.0 mg/kg/injection, schedule: Q01DX009 (ip), vehicle: saline) was 10 of 10; the survivor count (dose: 4.0 mg/kg/injection, schedule: Q01DX009 (ip), vehicle: saline) was 8 of 10; the survivor count (dose: 4.0 mg/kg/injection, schedule: Q01DX009 (ip), vehicle: water) was 7 of 10 and 10 of 10; the survivor count (dose: 6.0 mg/kg/injection, schedule: Q01DX009 (ip), vehicle: saline) was 6 of 10 and 9 of 10. Further, the survivor count runs as follows: (dose: 8.0 mg/kg/injection, schedule: Q01DX009 (ip), vehicle: water) 9 of 10; (dose: 12.0 mg/kg/injection, schedule: Q04DX003 (ip), vehicle: saline) 10 of 10; (dose: 16.7 mg/kg/injection, schedule: Q01DX001 (ip), vehicle: water) 5 of 8.

Take `CC1NCCOC1c1ccccc1` (stereo not drawn): the T/C (dose: 6.25 mg/kg/injection, schedule: Q01DX009 (ip), vehicle: saline) is 132 % of control and the T/C (dose: 12.5 mg/kg/injection, schedule: Q01DX009 (ip), vehicle: saline) was 135 % of control [8 of 10 alive]. Moreover, the survivor count is, setting by setting: (dose: 100.0 mg/kg/injection, schedule: Q01DX009 (ip), vehicle: saline) 10 of 10; (dose: 200.0 mg/kg/injection, schedule: Q01DX009 (ip), vehicle: saline) 0 of 10; (dose: 400.0 mg/kg/injection, schedule: Q01DX009 (ip), vehicle: saline) 0 of 10.

As for `CN=C(N)N/N=C(\C)c1ccc2c(c1)Cc1ccccc1-2`, the survivor count is, setting by setting: (dose: 200.0 mg/kg/injection, schedule: Q01DX009 (ip), vehicle: saline with Tween-80) 7 of 10; (dose: 400.0 mg/kg/injection, schedule: Q01DX009 (ip), vehicle: saline with Tween-80) 1 of 10.

The values are drawn from PubChem BioAssay AID192 (DTP/NCI, 2004).
